Data source: PubChem BioAssay AID1259308 (NCATS, 2017)
Screen: 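Genes whose loss raises luciferase production in HEK293 cells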 (primary screen). Cell system: human HEK293 embryonic kidney cells stably expressing firefly luciferase (HEK-CMV-Luc2-Hygro). Reagents: single siRNA against human genes, 0.8 pmol siRNA per well. Timing: 72 h. Detection: 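Reporter luminescence and viable-cell signal on separate replicate plates, given as percent of non-targeting control and median/MAD z-scores, plus per-cell luciferase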. Reading the numbers: total luciferase, z-score and total luciferase, % of control: higher = more reporter protein produced. Rule for the call: 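An siRNA counts as active if its total luciferase robust z-score exceeds 3; genes with two or more such siRNAs out of three were retested with fresh siRNAs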. Calls: active = raised luciferase; inactive = no rise.
The whole screen tested about 59,000 reagents; below is an unselected part. About 1,510 of them (2.6%) count as active. 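Calls use total luciferase alone and ignore viability, so some active siRNAs may act by altering cell number.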 A number with no mark means an inactive call. The numbers tell different reagents against one gene apart. Further read-outs or replicates are left out here.

NUDT11 (nudix hydrolase 11) #1 gave total luciferase, z-score 0.422; total luciferase, % of control 90.3. NUDT11 (nudix hydrolase 11) #2 gave total luciferase, z-score 3.04 (active); total luciferase, % of control 142. Depletion of NUDT11 (nudix hydrolase 11) #3 came out at: total luciferase, z-score -0.238; total luciferase, % of control 77.1. Silencing of CD99P1 (CD99 molecule pseudogene 1) #1 came out at: total luciferase, z-score -1.06; total luciferase, % of control 60.8. Silencing of CD99P1 (CD99 molecule pseudogene 1) #2 gave: total luciferase, z-score 2.79; total luciferase, % of control 137. Knock-down of CD99P1 (CD99 molecule pseudogene 1) #3 came out at: total luciferase, z-score 3.09 (active); total luciferase, % of control 143.

PLXDC1 (plexin domain containing 1) #1 scored total luciferase, z-score -1.14; total luciferase, % of control 59.2. Silencing of PLXDC1 (plexin domain containing 1) #2 came out at: total luciferase, z-score 1.42; total luciferase, % of control 110. Knock-down of PLXDC1 (plexin domain containing 1) #3 resulted in: total luciferase, z-score -3.48; total luciferase, % of control 12.7. Against CDC5L (cell division cycle 5 like) #1, the values are total luciferase, z-score -0.617; total luciferase, % of control 69.6. Against CDC5L (cell division cycle 5 like) #2, the entry reads total luciferase, z-score 3.94 (active); total luciferase, % of control 160. For CDC5L (cell division cycle 5 like) #3, the values are total luciferase, z-score 1.72; total luciferase, % of control 116.

After knock-down of PACSIN3 (protein kinase C and casein kinase substrate in neurons 3) #1, the screen gave total luciferase, z-score -0.47; total luciferase, % of control 72.5. Against PACSIN3 (protein kinase C and casein kinase substrate in neurons 3) #2, the entry reads total luciferase, z-score 1.16; total luciferase, % of control 105. PACSIN3 (protein kinase C and casein kinase substrate in neurons 3) #3 showed total luciferase, z-score -0.54; total luciferase, % of control 71.1. After knock-down of RSPH4A (radial spoke head component 4A) #1 the results were total luciferase, z-score -0.979; total luciferase, % of control 62.4. With knock-down of RSPH4A (radial spoke head component 4A) #2, the screen gave total luciferase, z-score -1.8; total luciferase, % of control 46.1. For RSPH4A (radial spoke head component 4A) #3, the values are total luciferase, z-score -0.486; total luciferase, % of control 72.2.

Depletion of CARMIL1 (capping protein regulator and myosin 1 linker 1) #1 came out at: total luciferase, z-score -2.5; total luciferase, % of control 32.1. Depletion of CARMIL1 (capping protein regulator and myosin 1 linker 1) #2 resulted in: total luciferase, z-score -0.46; total luciferase, % of control 72.7. With knock-down of CARMIL1 (capping protein regulator and myosin 1 linker 1) #3, the screen gave total luciferase, z-score 0.397; total luciferase, % of control 89.8.
